From US20110305715A1, “ANTIBODIES TO 3-HYDROXYCOTININE AND METHODS OF USE THEREOF” (priority 2010, published 2011)
Some of these results come from one statement about several compounds together. For at least one compound, name, drawing or mass did not settle the structure.

System: 3-Hydroxycotinine MAb 22H9C7
Assay: Competitive microplate ELISA (test principle #1) with immobilized 3HC MAb and 3HC-HRP tracer
Details: for Reactivity (%): calculated from IC50 values, 3-Hydroxycotinine MAb 22H9C7; for IC50: competitor vs 3HC-HRP for 3-Hydroxycotinine MAb 22H9C7

In the case of `CN1C(=O)CC[C@H]1c1cccnc1` [Cotinine], the “Reactivity (%)” value (listed as cotinine) is reported as “less than 1%” and the IC50 (listed as cotinine) is reported as > 5,000 ng/mL.
For `CN1CCCC1c1ccc[n+]([O-])c1` (centres unmarked) [Nicotine-N-Oxide, Nicotine-N-oxide], the “Reactivity (%)” value (listed as Nicotine-N-oxide) was “less than 1%” and the IC50 (listed as Nicotine-N-oxide) was > 5,000 ng/mL.
In the case of `CN1C(=O)CCC1c1ccc[n+](C2OC(C(=O)[O-])C(O)C(O)C2O)c1` (centres unmarked) [Cotinine-gluconuride, cotinine-glucuronide], the IC50 (listed as cotinine-glucuronide) is reported as > 5,000 ng/mL.
